“And” between values parts separate entries of the source, which are not always exact repeats. Equal values may be shown once.
Experiments:
[1] = Static thermostability of the stabilized resin, GARDNER Scale comparator; details: Compound B, 210° C, 21 min
Method: (§1) These studies were performed with five different formulae of vinyl resins (hereinafter referred to as Compounds).
(§2) The different Compounds were mixed and calendered in a mixer of which the cylinders were heated to 160° C. The rigid sheets so obtained were then heated in an oven to a temperature between 180° C and 215° C, until incipient carbonization.
(§3) A stove with rotating drums, ventilated and equipped with a thermostat was used for this operation. In the trials described hereunder, the behaviour of the sheets containing one of the stabilizers to be tested was compared to that of sheets of the same formulae but containing 2-phenylindole as stabilizer.
(1) The coloration of the sheets, of which samples were removed from the stove at fixed intervals, was compared to a standard scale of coloration, known as the GARDNER Scale and expressed in terms of the reference figures of the GARDNER Scale.
Comparisons were made with a GARDNER Scale comparator which contains 18 filters of coloured glass and which offers the possibility of observing by transparency and in a limited field of view both the sheet and the reference filters.

[2] = Static thermostability of the stabilized resin, simplified method (GARDNER sub-scale in polyvinyl chloride sheets)
Method: as §1, §2, §3
(2) It is also possible to use a simplified method which is more rapid and with which valid results are also obtained: A reference scale is drawn up with sheets of thermally treated polyvinyl chloride, of which the colorations have been definitely determined in GARDNER degrees as above.
A GARDNER sub-scale is thus obtained in polyvinyl chloride sheets which can be directly compared to the sheets to be tested without using the comparator.

Row | Compound | Coloration of sheet ([2]; Compound A, 210° C, 0 min) | Coloration of sheet ([2]; Compound A, 210° C, 3 min) | Coloration of sheet ([2]; Compound A, 210° C, 6 min) | Coloration of sheet ([2]; Compound A, 210° C, 9 min) | Coloration of sheet ([2]; Compound A, 210° C, 12 min) | Coloration of sheet ([2]; Compound A, 210° C, 15 min) | Coloration of sheet ([2]; Compound A, 210° C, 18 min) | other results
1 | c1ccc(-c2cc3ccccc3[nH]2)cc1 [2-phenyl-indole] | 1 GARDNER degrees | 2 GARDNER degrees and 1 GARDNER degrees |  |  |  |  |  | Condition of sheet [1]: completely burnt; Burning of sheet along its edges ([2]; Compound A, 210° C, after 15 minutes): burnt along its edges after 15 minutes; Coloration of sheet ([2]; Compound C, 210° C, 0 min): 1 GARDNER degrees; Coloration of sheet ([2]; Compound C, 210° C, 10 min): 1.5 GARDNER degrees; Coloration of sheet ([2]; Compound C, 210° C, 20 min): 2 GARDNER degrees; Coloration of sheet ([2]; Compound C, 210° C, 30 min): < 3 GARDNER degrees; Coloration of sheet ([2]; Compound C, 210° C, 40 min): 3 GARDNER degrees; Coloration of sheet ([2]; Compound C, 210° C, 50 min): > 3 GARDNER degrees; Coloration of sheet ([2]; Compound C, 210° C, 55 min): 3.5 GARDNER degrees; Coloration of sheet ([2]; Compound C, 210° C, 60 min): > 4 GARDNER degrees; Coloration of sheet ([2]; Compound D, 185° C, 0 min): 1 GARDNER degrees; Coloration of sheet ([2]; Compound D, 185° C, 10 min): 1 GARDNER degrees; Coloration of sheet ([2]; Compound D, 185° C, 20 min): < 2 GARDNER degrees; Coloration of sheet ([2]; Compound D, 185° C, 30 min): 2 GARDNER degrees
2 | Cc1cc(-c2cc3ccccc3[nH]2)ccc1OCc1ccccc1 [Stabilizer 32, 2-(3'-methyl-4'-benzyloxy-phenyl)-indole] | 1 GARDNER degrees | 1 GARDNER degrees | 4 GARDNER degrees | 4 GARDNER degrees | 11 GARDNER degrees | 13 GARDNER degrees | Burnt | 
3 | c1ccc2[nH]c(-c3ccc4c(c3)OCO4)cc2c1 [Stabilizer 33, 2-(3',4'-methylenedioxy-phenyl)-indole] | 1 GARDNER degrees | 1 GARDNER degrees | 2 GARDNER degrees | 5 GARDNER degrees | 11 GARDNER degrees | 13 GARDNER degrees | Burnt | 
4 | c1ccc2[nH]c(-c3ccc4c(c3)OCCO4)cc2c1 [Stabilizer 34, 2-(3',4'-ethylenedioxy-phenyl)-indole] | 1 GARDNER degrees | 1 GARDNER degrees | 2 GARDNER degrees | 5 GARDNER degrees | 10 GARDNER degrees | 13 GARDNER degrees | Burnt | 
5 | CCOc1ccc(-c2cc3ccccc3[nH]2)cc1C [Stabilizer 35, 2-(3'-methyl-4'-ethoxy-phenyl)-indole] | 1 GARDNER degrees | 1 GARDNER degrees | 2 GARDNER degrees | 5 GARDNER degrees | 5 GARDNER degrees | 11 GARDNER degrees | 12 GARDNER degrees | 
6 | COc1ccc(-c2cc3ccccc3[nH]2)cc1OC [Stabilizer 36, 2-(3',4'-dimethoxy-phenyl)-indole] | 1 GARDNER degrees | 1 GARDNER degrees | 2 GARDNER degrees | 3 GARDNER degrees | 7 GARDNER degrees | 8 GARDNER degrees |  | 
7 | COc1cc(-c2cc3ccccc3[nH]2)cc(OC)c1OC [Stabilizer 37, 2-(3',4',5'-trimethoxy-phenyl)-indole] | 1 GARDNER degrees | 1 GARDNER degrees | 2 GARDNER degrees | 2 GARDNER degrees | 8 GARDNER degrees | 10 GARDNER degrees | 12 GARDNER degrees | 

Source: US4096112A, “2-Phenyl-indole derivative stabilizers for PVC resins” (Labaz, priority 1976, dated 1978)
